{"source": "patent US20040018515A1", "about": "“Compositions selective for adenosine diphosphate and methods of using same” (priority 2002, published 2004)", "test_system": "ppERK", "test": "ADP aptamer F01-based kinase SPA", "assay_type": "biochemical", "details": "ADP SPA with ADP F01 aptamer; 3H-ATP and MBP; FIG. 34, 35", "description": "An ADP aptamer will concentrate the tritiated ADP released by kinase on the surface of the flash plate and generate a scintillation proximity signal detectable in a Topcount instrument.", "note": "At least one compound was matched to its structure with a doubt left."}
{"smiles": "Cn1cnc2c(NCc3ccccc3)nc(NCCO)nc21", "note": "[olomoucine]", "values": [{"measurement": "inhibition of ppERK", "value": "concentration-dependent inhibition"}]}
